{"source": "PubChem BioAssay AID1259405 (NCATS, 2018)", "purpose": "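Silenced genes that increase secreted GFP made by CHO cells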 (primary screen)", "system": "Chinese hamster CHO-K1 ovary cells with stable secreted eGFP expression", "reagent": "single siRNA against mouse genes, 0.8 pmol siRNA per well (2 µl of 400 nM stock)", "timing": "3 days", "detection": "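Per-well intracellular GFP measured by laser scanning cytometry, plus viability from ATP luminescence, each relative to plate median of non-targeting control wells, in %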", "reading the numbers": "GFP, % of control: higher = more GFP per well, higher productivity; viability (ATP), % of control: higher = more viable cells (more ATP)", "active means": "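Called active when intracellular GFP, relative to negative control, is at or above 120%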", "note": "Here is one part, drawn at random, of about 50,000 reagents. Over the whole deposit, about 4,000 (8%) got an active call. 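Mouse siRNA library applied to hamster cells; one well for each siRNA.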 Reagents against one gene are numbered here."}
{"Target gene": "Ripk4 (receptor-interacting serine-threonine kinase 4)", "reagent no.": 1, "GFP, % of control": 38.7, "viability (ATP), % of control": 36.4, "activity call": "inactive"}
{"Target gene": "Pafah1b2", "reagent no.": 1, "GFP, % of control": 72.1, "viability (ATP), % of control": 102, "activity call": "inactive"}
{"Target gene": "Pafah1b2", "reagent no.": 2, "GFP, % of control": 50.5, "viability (ATP), % of control": 54.3, "activity call": "inactive"}
{"Target gene": "Pafah1b2", "reagent no.": 3, "GFP, % of control": 30.1, "viability (ATP), % of control": 74.9, "activity call": "inactive"}
{"Target gene": "Mt4 (metallothionein 4)", "reagent no.": 1, "GFP, % of control": 59.5, "viability (ATP), % of control": 79.2, "activity call": "inactive"}
{"Target gene": "Mt4 (metallothionein 4)", "reagent no.": 2, "GFP, % of control": 78.3, "viability (ATP), % of control": 102, "activity call": "inactive"}
{"Target gene": "Mt4 (metallothionein 4)", "reagent no.": 3, "GFP, % of control": 82.3, "viability (ATP), % of control": 55.2, "activity call": "inactive"}
{"Target gene": "Jak2 (Janus kinase 2)", "reagent no.": 1, "GFP, % of control": 106, "viability (ATP), % of control": 63.4, "activity call": "inactive"}
{"Target gene": "Saxo6 (stabilizer of axonemal microtubules 6)", "reagent no.": 1, "GFP, % of control": 107, "viability (ATP), % of control": 73.4, "activity call": "inactive"}
{"Target gene": "Saxo6 (stabilizer of axonemal microtubules 6)", "reagent no.": 2, "GFP, % of control": 73.5, "viability (ATP), % of control": 36.6, "activity call": "inactive"}
{"Target gene": "Saxo6 (stabilizer of axonemal microtubules 6)", "reagent no.": 3, "GFP, % of control": 90.2, "viability (ATP), % of control": 92.3, "activity call": "inactive"}
{"Target gene": "Fndc3a (fibronectin type III domain containing 3A)", "reagent no.": 1, "GFP, % of control": 63.6, "viability (ATP), % of control": 72.6, "activity call": "inactive"}
{"Target gene": "Fndc3a (fibronectin type III domain containing 3A)", "reagent no.": 2, "GFP, % of control": 113, "viability (ATP), % of control": 88.2, "activity call": "inactive"}
{"Target gene": "Fndc3a (fibronectin type III domain containing 3A)", "reagent no.": 3, "GFP, % of control": 56.6, "viability (ATP), % of control": 109, "activity call": "inactive"}
{"Target gene": "Bpifa3 (BPI fold containing family A, member 3)", "reagent no.": 1, "GFP, % of control": 81.6, "viability (ATP), % of control": 83.6, "activity call": "inactive"}
{"Target gene": "Bpifa3 (BPI fold containing family A, member 3)", "reagent no.": 2, "GFP, % of control": 78.2, "viability (ATP), % of control": 71.8, "activity call": "inactive"}
{"Target gene": "Bpifa3 (BPI fold containing family A, member 3)", "reagent no.": 3, "GFP, % of control": 74.5, "viability (ATP), % of control": 70.1, "activity call": "inactive"}
{"Target gene": "Ildr1 (immunoglobulin-like domain containing receptor 1)", "reagent no.": 1, "GFP, % of control": 69.6, "viability (ATP), % of control": 51.5, "activity call": "inactive"}
{"Target gene": "Ildr1 (immunoglobulin-like domain containing receptor 1)", "reagent no.": 2, "GFP, % of control": 165, "viability (ATP), % of control": 125, "activity call": "active"}
{"Target gene": "Inpp5k (inositol polyphosphate 5-phosphatase K)", "reagent no.": 1, "GFP, % of control": 87.1, "viability (ATP), % of control": 101, "activity call": "inactive"}
{"Target gene": "Inpp5k (inositol polyphosphate 5-phosphatase K)", "reagent no.": 2, "GFP, % of control": 55.5, "viability (ATP), % of control": 68.7, "activity call": "inactive"}
{"Target gene": "Inpp5k (inositol polyphosphate 5-phosphatase K)", "reagent no.": 3, "GFP, % of control": 50.7, "viability (ATP), % of control": 61.6, "activity call": "inactive"}
{"Target gene": "Arl10 (ADP-ribosylation factor-like 10)", "reagent no.": 1, "GFP, % of control": 103, "viability (ATP), % of control": 86.5, "activity call": "inactive"}
{"Target gene": "Arl10 (ADP-ribosylation factor-like 10)", "reagent no.": 2, "GFP, % of control": 126, "viability (ATP), % of control": 82, "activity call": "active"}
{"Target gene": "Arl10 (ADP-ribosylation factor-like 10)", "reagent no.": 3, "GFP, % of control": 64.1, "viability (ATP), % of control": 64.6, "activity call": "inactive"}
{"Target gene": "Grn (granulin)", "reagent no.": 1, "GFP, % of control": 67.7, "viability (ATP), % of control": 79.7, "activity call": "inactive"}
{"Target gene": "Grn (granulin)", "reagent no.": 2, "GFP, % of control": 75.6, "viability (ATP), % of control": 69, "activity call": "inactive"}
{"Target gene": "Grn (granulin)", "reagent no.": 3, "GFP, % of control": 37.3, "viability (ATP), % of control": 56.4, "activity call": "inactive"}

Active calls, among the entries above:
{"Target gene": "Ildr1 (immunoglobulin-like domain containing receptor 1)", "reagent no.": 2, "GFP, % of control": 165, "viability (ATP), % of control": 125, "activity call": "active"}
{"Target gene": "Arl10 (ADP-ribosylation factor-like 10)", "reagent no.": 2, "GFP, % of control": 126, "viability (ATP), % of control": 82, "activity call": "active"}
